Data: PubChem BioAssay AID2685 (National Center for Advancing Translational Sciences (NCATS), 2010)
Some of the results follow. Further columns of the screen follow, without active or inactive calls. Most of these compounds were active or inconclusive in the main read-out, so they are no random draw. The note in brackets gives the kind of curve behind each potency; many fits are weak.

Assay: qHTS Assay for Lipid Storage Modulators in Drosophila S3 Cells;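 on cell number change: cells counted by Cell Tracker Red CMTPX staining in the red channel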
Settings: BODIPY lipid droplet fluorescence, 18-24 h; for cell number change: measured here: cell count max response, cells fed with added oleic acid
In short: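 Drosophila S3 cells got compounds at several concentrations plus oleic acid (400 uM solution). Laser-scanning cytometry with 488 nm excitation read lipid droplets at 500-530 nm and cells at 575-640 nm. Percent activity was relative to 20 uM Triacsin C.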

[1] = measured here: lipid fluorescence (Fed channel) AC50, cells fed with added oleic acid
[2] = measured here: cell number channel AC50, cells fed with added oleic acid

Row | SMILES | cell number change [%] | AC50 [1] | AC50 [2]
1 | COc1ccc(CCNC(=O)CCCn2nc(C)c([N+](=O)[O-])c2C)cc1OC | 13.8 | 0.411 µM [rising, partial curve, poor fit] | –
2 | CCn1cc(Br)c(C(=O)Nc2ccc(F)cc2F)n1 | 27.4 | 0.651 µM [rising, single point] | 1.16 µM [rising, full curve, poor fit]
3 | CCC(=O)N1CCN(c2ccc(NC(=O)COc3ccccc3[N+](=O)[O-])cc2)CC1 | -6.49 | 6.51 µM [rising, single point] | –
4 | COc1ccc(Cl)cc1NC(=O)[C@@H]1CCCN1C(=O)c1cccs1 | 11.2 | 0.0058 µM [rising, full curve, poor fit] | –
5 | CC(C)(C)C(=O)OCc1cn(-c2ccccc2)nn1 | -18.6 | – | 0.103 µM [falling, full curve, poor fit]
6 | O=C(NNC(=O)c1cccc([N+](=O)[O-])c1)c1ccncc1 | 31.6 | – | 0.00411 µM [rising, full curve, poor fit]
7 | O=C(CCN1CCC(c2ccccc2)C1)c1ccc2c(c1)OCCO2 (centres undefined) | -47.9 | 29.1 µM [falling, single point] | 18.4 µM [falling, single point]
8 | COc1ccc(NC(=O)CSc2nc3nc(C)cc(C)n3n2)cc1 | 10.3 | 5.17 µM [falling, single point] | –
9 | CSc1cccc(NC(=O)C(C)C)c1 | 117 | 23.1 µM [rising, partial curve] | 14.6 µM [rising, partial curve]
10 | COc1ccc(CN2CN(C(C)C)CSC2=S)cc1 | -17.4 | 25.9 µM [falling, partial curve, poor fit] | –
11 | Cc1ccc(S(=O)(=O)c2ccc(Cl)cc2)cc1S(=O)(=O)N1CCOCC1 | 67.8 | – | 6.51 µM [rising, partial curve]
12 | Cc1cc(C)c(NC(=O)c2ccc(S(=O)(=O)N(C)C)cc2)c(C)n1 | 0.625 | 0.82 µM [falling, full curve] | –
13 | O=C1COCC(=O)N1CCc1c[nH]c2ccccc12 | 18.6 | 0.326 µM [falling, single point] | 0.259 µM [falling, single point]
14 | CC1CCCN(C(=O)CCNS(=O)(=O)c2ccc3c(c2)c(=O)n(C)c(=O)n3C)C1 (centres undefined) | -50.5 | 4.11 µM [falling, single point] | 2.59 µM [falling, partial curve]
15 | O=C(NCCCN1CCCC1=O)c1cc2ccccc2o1 | -15.3 | 2.31 µM [rising, partial curve] | –
16 | Cc1ccc(-c2nc3ccccc3c(=O)n2CCN2CCOCC2)cc1 | – | 6.51 µM [rising, single point] | –
17 | COCCn1ccc(O)c(Cc2ccc(Cl)cc2)c1=O | 15.5 | 3.26 µM [falling, single point] | 3.26 µM [falling, single point]
18 | CCC1CCc2c(sc3nc(SCC(=O)NCc4ccco4)n(-c4ccccc4)c(=O)c23)C1 (centres undefined) | -30.9 | 11.6 µM [falling, partial curve] | 3.66 µM [falling, full curve]
19 | COc1cccc([C@@H]2CC=C(C(=O)O)[C@H](c3cccc(Cl)c3)N2S(=O)(=O)c2ccc(C)cc2)c1 | -25.7 | 14.6 µM [falling, partial curve, poor fit] | –

Gathered by group: the entries above containing a thiophene ring, fused or not (2)
Row | SMILES | cell number change [%] | AC50 [1] | AC50 [2]
4 | COc1ccc(Cl)cc1NC(=O)[C@@H]1CCCN1C(=O)c1cccs1 | 11.2 | 0.0058 µM [rising, full curve, poor fit] | –
18 | CCC1CCc2c(sc3nc(SCC(=O)NCc4ccco4)n(-c4ccccc4)c(=O)c23)C1 (centres undefined) | -30.9 | 11.6 µM [falling, partial curve] | 3.66 µM [falling, full curve]

Remaining list, next part.

Row | SMILES | cell number change [%] | AC50 [1] | AC50 [2]
20 | Cn1nc(N)c2c(-c3ccc(Cl)cc3)c(C#N)c(N)nc21 | 11.5 | 1.84 µM [rising, partial curve, poor fit] | –
21 | O=C(NC1CCN(C(=S)Nc2ccc(F)cc2)CC1)c1ccco1 | -2.14 | 4.11 µM [rising, full curve] | –
22 | Cc1cccc(-c2n[nH]c(=S)n2C)c1 | -6.32 | 0.651 µM [rising, single point] | –
23 | CCOC(=O)c1cc2c(ccn2C)n1CC(=O)N1CCN(c2ccccc2)CC1 | -17.7 | 8.2 µM [falling, partial curve] | –
24 | Cc1nn(Cc2ccc(C(=O)Nc3nc4c(C)cccc4s3)o2)c(C)c1Br | -24.4 | 0.146 µM [falling, full curve] | –
25 | CCN1CCc2c(sc(NC(=S)NC(=O)c3ccccc3)c2C#N)C1 | 4.02 | 5.8 µM [rising, full curve, poor fit] | –
26 | CC(Oc1ccc(Br)cc1)C(=O)NCC(C)(C)N1CCOCC1 (centres undefined) | – | 6.51 µM [rising, single point] | 6.51 µM [rising, single point]
27 | CCOc1c(Cl)cc(C(=O)Nc2ccccc2-c2ccccc2)cc1Cl | 12.6 | – | 0.00461 µM [falling, full curve, poor fit]
28 | CN(Cc1ccccc1NC(=O)c1ccc(S(=O)(=O)N(C)C)cc1)C1CCCCC1 | 7.75 | – | 0.326 µM [falling, partial curve, poor fit]
29 | O=C(NCc1ccc(F)cc1)c1cccnc1 | 1.76 | – | –
30 | CN(C)S(=O)(=O)c1cc(NC(=O)COC(=O)CCSc2ccc(Cl)cc2)ccc1Cl | 17 | 0.82 µM [falling, single point] | –
31 | CCOc1ccc(CN(C)Cc2cc(=O)oc3cc(C)c(Cl)cc23)cc1 | -4.01 | – | –
32 | COc1ccc2ccc(O)c(CN(C)CC(=O)Nc3ccccc3C(F)(F)F)c2c1 | -25.7 | 16.4 µM [falling, partial curve] | –
33 | CCOc1ccc(-c2cc(C(=O)NCCCn3ccnc3)c3cc(Br)ccc3n2)cc1 | -35.9 | – | –
34 | COc1ccc(CC(=O)Nc2ccc(S(=O)(=O)Nc3ncccn3)cc2)cc1 | -19.6 | 14.6 µM [falling, partial curve] | 6.51 µM [falling, single point]
35 | O=C(C[n+]1ccccc1)N/N=C/c1ccccc1[N+](=O)[O-] | -107 | 29.1 µM [falling, single point] | 29.1 µM [falling, partial curve, poor fit]
36 | COc1ccc(-c2csc3ncnc(N4CCN(S(=O)(=O)c5cccc(Br)c5)CC4)c23)cc1 | 41.1 | – | 1.64 µM [rising, partial curve, poor fit]
37 | Cc1onc(-c2ccccc2Cl)c1C(=O)Nc1cccc(-c2cn3cccnc3n2)c1 | 34.3 | 0.651 µM [rising, partial curve, poor fit] | 1.84 µM [rising, partial curve]
38 | O=S(=O)(NCc1ccc(F)cc1)c1ccc(-n2cnnn2)cc1 | 3.63 | 4.11 µM [falling, single point] | –

Row | SMILES | cell number change [%] | AC50 [1] | AC50 [2]
39 | O=C(N/N=C/c1ccc(Cl)cc1)c1sccc1OCc1ccc(F)cc1 | – | 2.31 µM [rising, full curve] | 2.91 µM [rising, partial curve]
40 | CCOC(=O)C1CCCCN1C(=O)c1ccc2nc(Cc3ccc(OC)cc3)oc2c1 (centres undefined) | -39.6 | 29.1 µM [falling, partial curve, poor fit] | 6.51 µM [falling, partial curve]
41 | O=C(CNC(=O)c1ccc(Br)o1)NNC(=O)c1ccccc1 | 2.09 | 1.46 µM [falling, partial curve] | 1.46 µM [falling, partial curve]
42 | COc1ccc(NC(=O)N2CCC(C(=O)c3ccc4c(c3)OCCO4)CC2)cc1 | – | 16.4 µM [rising, partial curve] | –
43 | COC(OC)c1ccnc(-c2ccc(OC(=O)c3cccs3)cc2)n1 | -10.1 | – | 0.731 µM [falling, single point]
44 | O=C(CS(=O)(=O)Cc1ccccc1)NCc1ccccc1Cl | 14.6 | 23.1 µM [rising, single point] | –
45 | COc1ccccc1C(=O)Nc1ccccc1SC(=O)c1ccccc1OC | -17.6 | 16.4 µM [falling, single point] | –
46 | CCc1nc2ccccc2c(=O)n1NC(=O)c1c(O)c2cccc3c2n(c1=O)CCC3 | 7.46 | 1.64 µM [falling, full curve] | –
47 | O=C(NCc1cccnc1)c1sc2cc(Cl)ccc2c1Cl | -34.1 | – | –
48 | CC(C)(C)OC(=O)N1CCC(c2c(C(=O)NC3CC3)cnn2-c2ccccc2)CC1 | -6.11 | 29.1 µM [rising, single point] | –
49 | N#Cc1c(N)nc2c(c1N)CC(=O)N2c1ccc(Cl)cc1 | – | 0.092 µM [rising, full curve] | 0.0517 µM [rising, full curve]
50 | CC(C(=O)O)n1c2ccccc2c2cnn(C)c(=O)c21 (centres undefined) | 6.31 | 6.51 µM [falling, single point] | 0.00461 µM [falling, full curve, poor fit]
51 | CCN(C(=O)CCS(=O)(=O)c1ccc(Br)cc1)c1ccc2c(c1)OCO2 | -7.51 | 0.731 µM [rising, partial curve] | –
52 | O=C(COC(=O)/C=C/c1ccccc1[N+](=O)[O-])NC1CC1 | -27 | 29.1 µM [falling, single point] | –
53 | O=C(c1ccc(Cl)cc1)C1CCN(Cc2ccccc2)CC1 | 12.6 | 3.66 µM [rising, full curve] | –
54 | C[C@H](C(=O)C=[N+]=[N-])N1C(=O)c2ccccc2C1=O | 6.1 | – | –
55 | O=C(N/N=C/c1ccc(Br)cc1)c1cc[n+]([O-])cc1 | 48 | 13 µM [rising, partial curve] | 16.4 µM [rising, partial curve, poor fit]
56 | Cn1c(=O)c2c(nc(NCCNC(=O)c3ccco3)n2Cc2ccccc2F)n(C)c1=O | -2.86 | 29.1 µM [falling, single point] | –
